At least one compound was matched to its structure with a doubt left.
Tested on: Mig6
Assay: Immunoblot analysis of Mig6 after inhibitor exposure in parental and TGFβ-induced H358 cells
Format: cell-based, human
Settings: 24 hours exposure
Method: A. Protein lysates were extracted from indicated cell lines Immunoblot analysis was performed with antibodies against E-cadherin, vimentin and β-actin. […] C. […] Cells were collected at different time points and Immunoblot analysis was performed with indicated antibodies. […] Values were set at 100% for untreated controls. […] F. Protein lysates were extracted from H358 cells treated with TGFβ1 or control vehicle for 21 days and immunoblot analysis was performed with antibodies against indicated RTKs. β-actin was used as a loading control.
Antibodies and immunoblot analysis. Pelleted cells were lysed on ice by adding RIPA lysis buffer (Thermo Scientific, Rockford, Ill.) supplemented with protease and phosphatase inhibitors (Roche, Basel, Switzerland). Protein concentrations were determined by the BCA method and lysates diluted in SDS sample buffer (Bio-Rad, Hercules, Calif.) prior to SDS-PAGE. Anti-Mig6 antibody was a gift from Dr. Ferby (Nature medicine. 2006; 12:568-73). β-actin was obtained from Abcam (Cambridge, Mass.). All other antibodies were obtained from Cell Signaling (Beverly, Mass.). Secondary horseradish peroxidase (HRP)-conjugated antibodies were from KPL (Gaithersburg, Md.) and signals developed using West-Pico chemiluminescence substrate (Thermo Scientific). ImageJ (ver 1.46) software was used to quantify immunoblot signals on exposed films. […]

Structure (SMILES): O=c1cc(N2CCOCC2)oc2c(-c3ccccc3)cccc12 [LY294002]
- basal expression of Mig6 (H358 cells): reduced basal expression of Mig6
- inhibition of Mig6 (erlotinib-resistant H358/TGFβ1-day 21 and H358/TGFβ3-day 21 cells): significant inhibition of Mig6

From US10801071B2, “TGF(β)-MIR200-MIG6 pathway and its use in the treatment of cancer as an indicator of resistance to EGFR inhibitors” (THE JOHNS HOPKINS UNIVERSITY, priority 2014, dated 2020)
